Measured values published in article doi:10.1101/2021.04.14.439704.
No constants are given. Whether binding was seen depends on the method and setting. In cells and extracts the contact can be indirect. Some entries that bind do so weakly or less than the wild type.

Chains of the proteins cited; added tags and fusions are not shown.
UniProt P20719: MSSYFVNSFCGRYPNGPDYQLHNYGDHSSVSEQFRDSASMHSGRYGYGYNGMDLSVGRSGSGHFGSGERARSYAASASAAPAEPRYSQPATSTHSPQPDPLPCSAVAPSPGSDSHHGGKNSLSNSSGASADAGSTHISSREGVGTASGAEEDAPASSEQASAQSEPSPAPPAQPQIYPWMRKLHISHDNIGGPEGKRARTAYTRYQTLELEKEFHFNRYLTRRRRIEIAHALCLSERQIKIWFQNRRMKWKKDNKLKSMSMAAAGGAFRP
UniProt P09382: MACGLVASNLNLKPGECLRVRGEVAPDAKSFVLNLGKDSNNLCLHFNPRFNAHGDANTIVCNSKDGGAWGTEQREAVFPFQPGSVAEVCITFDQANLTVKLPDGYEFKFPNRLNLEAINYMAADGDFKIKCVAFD

Assays:
[1] = target: Homeobox A5 (HOXA5) (human (endogenous in patient-derived BTSCs)) (UniProt P20719); test: proximity ligation
[2] = target: Homeobox A5 (HOXA5) (human (endogenous in patient-derived BTSCs)) (UniProt P20719); test: co-IP

binding [1]: binds
binding [2]: binds
Substance: galectin1 (from UniProt P09382 1-135)
